Test [1] deals with HA-FLAG-SOC3 (Arabidopsis thaliana) (UniProt F4I901). The test can be described thus: co-IP; proteins transiently co-expressed in N. benthamiana leaves, harvested after 48 h; GTEN buffer (25 mM Tris-HCl pH 7.5, 150 mM NaCl, 1 mM EDTA, 0.15% NP-40, 10 mM DTT); FLAG-tagged protein precipitated with anti-FLAG M2 beads, 3 h at 4 °C; western blot. (In general: A western blot detects proteins with antibodies after separation by electrophoresis.)

Protein sequences, listed by entry. Tags and fused reporters are not part of them. Lines headed by an entry give the natural chain unless they say otherwise; changes in a name come on top.
UniProt Q39255: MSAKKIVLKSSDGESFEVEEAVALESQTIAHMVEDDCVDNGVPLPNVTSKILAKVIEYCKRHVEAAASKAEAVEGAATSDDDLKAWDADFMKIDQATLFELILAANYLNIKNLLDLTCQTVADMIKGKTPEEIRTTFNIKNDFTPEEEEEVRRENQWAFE
UniProt P51818: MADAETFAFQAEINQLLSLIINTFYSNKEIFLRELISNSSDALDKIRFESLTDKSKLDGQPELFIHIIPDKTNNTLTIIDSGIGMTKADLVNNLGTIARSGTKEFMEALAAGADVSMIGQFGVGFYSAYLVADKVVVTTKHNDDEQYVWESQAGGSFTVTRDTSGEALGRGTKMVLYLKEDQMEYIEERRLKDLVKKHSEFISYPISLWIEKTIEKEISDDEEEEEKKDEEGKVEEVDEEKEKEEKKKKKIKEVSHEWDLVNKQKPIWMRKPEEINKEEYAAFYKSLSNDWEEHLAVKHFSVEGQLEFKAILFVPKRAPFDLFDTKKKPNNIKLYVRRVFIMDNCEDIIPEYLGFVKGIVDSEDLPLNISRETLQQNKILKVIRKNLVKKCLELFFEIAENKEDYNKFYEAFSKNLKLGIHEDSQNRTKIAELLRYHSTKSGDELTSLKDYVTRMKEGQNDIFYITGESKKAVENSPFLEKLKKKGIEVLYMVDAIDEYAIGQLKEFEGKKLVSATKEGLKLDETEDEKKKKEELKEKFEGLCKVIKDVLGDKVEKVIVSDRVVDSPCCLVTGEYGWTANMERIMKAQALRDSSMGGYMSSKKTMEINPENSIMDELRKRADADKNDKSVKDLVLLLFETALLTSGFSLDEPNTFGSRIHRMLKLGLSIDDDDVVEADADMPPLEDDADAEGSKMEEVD
UniProt Q4PT31: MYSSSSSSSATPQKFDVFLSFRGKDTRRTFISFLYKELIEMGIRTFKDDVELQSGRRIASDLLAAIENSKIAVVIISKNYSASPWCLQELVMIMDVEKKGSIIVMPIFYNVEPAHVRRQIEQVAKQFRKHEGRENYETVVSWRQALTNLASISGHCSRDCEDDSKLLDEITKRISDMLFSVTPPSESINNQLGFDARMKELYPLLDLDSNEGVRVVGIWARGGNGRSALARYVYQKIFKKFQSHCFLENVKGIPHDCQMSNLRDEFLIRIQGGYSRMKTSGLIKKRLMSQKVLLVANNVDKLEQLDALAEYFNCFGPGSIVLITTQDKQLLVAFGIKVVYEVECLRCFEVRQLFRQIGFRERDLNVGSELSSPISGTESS

The target in test [2] is T1, SUSA2-FLAG (Arabidopsis thaliana) (UniProt Q9FKT0).
T1 sequence: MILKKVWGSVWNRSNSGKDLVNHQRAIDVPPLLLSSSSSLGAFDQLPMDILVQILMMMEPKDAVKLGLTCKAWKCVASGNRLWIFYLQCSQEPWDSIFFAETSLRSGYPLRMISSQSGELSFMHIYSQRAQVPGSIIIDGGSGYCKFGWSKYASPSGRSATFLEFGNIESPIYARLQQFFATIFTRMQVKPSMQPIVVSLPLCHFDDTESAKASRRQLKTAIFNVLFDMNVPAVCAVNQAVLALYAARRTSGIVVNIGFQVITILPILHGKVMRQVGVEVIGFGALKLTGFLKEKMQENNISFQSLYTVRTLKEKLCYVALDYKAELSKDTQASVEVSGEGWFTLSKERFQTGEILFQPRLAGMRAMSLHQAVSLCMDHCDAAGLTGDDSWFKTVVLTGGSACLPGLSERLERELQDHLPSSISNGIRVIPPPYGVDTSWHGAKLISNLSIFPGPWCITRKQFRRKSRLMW
The test can be described thus: co-IP; Arabidopsis stable transgenic lines carrying both transgenes; for CHS1-HA and TN2-HA in Col-0, hsp90.3-1 and sgt1b backgrounds.

Test [3] has as its target ASK1-FLAGTEVZZ (Arabidopsis thaliana) (UniProt Q39255). Briefly: co-IP; FLAGTEVZZ-tagged bait co-expressed with a FLAG-tagged partner in N. benthamiana leaves, 48 h; how the bait was precipitated is not told.

No constants are given. Whether binding was seen depends on the method and setting. Binding seen in cells or lysates may run through a third protein. Binding can be weak; no strength is given. For part of these data: Tags and fused reporters may be left off the sequences shown.

HSP90.3-HA (from UniProt P51818 1-699): the binding entry in test [1] is on record as “binds”. TN2-HA (from UniProt Q4PT31): the binding entry in test [2] is listed as “binds”. Turning to HA-FLAG-SOC3 (from UniProt F4I901), in test [3], the binding entry is “binds”.

For the origin of these results see article PMC7562919.
